{"source": "the supplement of paper PMC8728848", "assay_in_all_cases": "glycan array binding signal (z-score within array); higher = stronger binding", "details_in_all_cases": "glycan notation: IUPAC condensed, linker removed", "key": {"[1]": {"molecular_target": "Fuc(a1-2)Gal(b1-4)GlcNAc(b1-3)Gal(b1-4)GlcNAc(b1-2)Man(a1-3)[Fuc(a1-2)Gal(b1-4)GlcNAc(b1-3)Gal(b1-4)GlcNAc(b1-2)Man(a1-6)]Man(b1-4)GlcNAc(b1-4)GlcNAc", "outline": "(§1)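 Columns mapping to the same glycan were averaged after glycan names were converted to IUPAC-condensed notation. The data come from 3228 arrays in the Consortium for Functional Glycomics database, limited to those with an available protein sequence. Binding is reported as a within-array Z-score averaged across arrays of one protein sequence and across linkers.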"}, "[2]": {"molecular_target": "Fuc(a1-2)Gal(b1-4)GlcNAc(b1-3)Gal(b1-4)GlcNAc(b1-3)Gal(b1-4)GlcNAc", "outline": "as §1"}, "[3]": {"molecular_target": "Fuc(a1-2)Gal(b1-4)GlcNAc(b1-3)GalNAc", "outline": "as §1"}, "[4]": {"molecular_target": "Fuc(a1-2)Gal(b1-4)GlcNAc(b1-3)[Fuc(a1-2)Gal(b1-4)GlcNAc(b1-6)]GalNAc", "outline": "as §1"}, "[5]": {"molecular_target": "Fuc(a1-2)Gal(b1-4)GlcNAc(b1-3)[Fuc(a1-3)[Gal(b1-4)]GlcNAc(b1-6)]Gal(b1-4)Glc", "outline": "as §1"}, "[6]": {"molecular_target": "Fuc(a1-2)Gal(b1-4)GlcNAc(b1-6)GalNAc", "outline": "as §1"}, "[7]": {"molecular_target": "Fuc(a1-2)Gal(b1-4)GlcNAc6S", "outline": "as §1"}, "[8]": {"molecular_target": "Fuc(a1-2)Gal(b1-4)[Fuc(a1-3)]GlcNAc", "outline": "as §1"}, "[9]": {"molecular_target": "Fuc(a1-2)Gal(b1-4)[Fuc(a1-3)]GlcNAc(b1-2)Man(a1-3)[Fuc(a1-2)Gal(b1-4)[Fuc(a1-3)]GlcNAc(b1-2)Man(a1-6)]Man(b1-4)GlcNAc(b1-4)[Fuc(a1-6)]GlcNAc", "outline": "as §1"}, "[10]": {"molecular_target": "Fuc(a1-2)Gal(b1-4)[Fuc(a1-3)]GlcNAc(b1-2)[Fuc(a1-2)Gal(b1-4)[Fuc(a1-3)]GlcNAc(b1-4)]Man(a1-3)[Fuc(a1-2)Gal(b1-4)[Fuc(a1-3)]GlcNAc(b1-2)Man(a1-6)]Man(b1-4)GlcNAc(b1-4)GlcNAc", "outline": "as §1"}, "[11]": {"molecular_target": "Fuc(a1-2)Gal(b1-4)[Fuc(a1-3)]GlcNAc(b1-3)Gal(b1-4)[Fuc(a1-3)]GlcNAc", "outline": "as §1"}, "[12]": {"molecular_target": "Fuc(a1-2)Gal(b1-4)[Fuc(a1-3)]GlcNAc(b1-3)Gal(b1-4)[Fuc(a1-3)]GlcNAc(b1-3)Gal(b1-4)[Fuc(a1-3)]GlcNAc", "outline": "as §1"}, "[13]": {"molecular_target": "Fuc(a1-2)Gal(b1-4)[Fuc(a1-3)]GlcNAc(b1-3)GalNAc", "outline": "as §1"}, "[14]": {"molecular_target": "Fuc(a1-2)Gal(b1-4)[Fuc(a1-3)]GlcNAc(b1-3)[Neu5Ac(a2-6)Gal(b1-4)GlcNAc(b1-6)]Gal(b1-4)Glc", "outline": "as §1"}, "[15]": {"molecular_target": "Fuc(a1-2)Gal3S(b1-4)GlcNAc", "outline": "as §1"}, "[16]": {"molecular_target": "Fuc(a1-2)Gal6S(b1-3)GlcNAc", "outline": "as §1"}, "[17]": {"molecular_target": "Fuc(a1-2)Gal6S(b1-3)GlcNAc6S", "outline": "as §1"}, "[18]": {"molecular_target": "Fuc(a1-2)Gal6S(b1-4)Glc", "outline": "as §1"}, "[19]": {"molecular_target": "Fuc(a1-2)Gal6S(b1-4)Glc6S", "outline": "as §1"}, "[20]": {"molecular_target": "Fuc(a1-2)[Gal(a1-3)]Gal", "outline": "as §1"}, "[21]": {"molecular_target": "Fuc(a1-2)[Gal(a1-3)]Gal(b1-3)GalNAc", "outline": "as §1"}, "[22]": {"molecular_target": "Fuc(a1-2)[Gal(a1-3)]Gal(b1-3)GalNAc(b1-3)Gal(a1-4)Gal(b1-4)Glc", "outline": "as §1"}, "[23]": {"molecular_target": "Fuc(a1-2)[Gal(a1-3)]Gal(b1-3)GlcNAc", "outline": "as §1"}, "[24]": {"molecular_target": "Fuc(a1-2)[Gal(a1-3)]Gal(b1-3)GlcNAc(b1-2)Man(a1-3)[Fuc(a1-2)[Gal(a1-3)]Gal(b1-3)GlcNAc(b1-2)Man(a1-6)]Man(b1-4)GlcNAc(b1-4)GlcNAc", "outline": "as §1"}, "[25]": {"molecular_target": "Fuc(a1-2)[Gal(a1-3)]Gal(b1-3)GlcNAc(b1-2)Man(a1-3)[Fuc(a1-2)[Gal(a1-3)]Gal(b1-3)GlcNAc(b1-2)Man(a1-6)]Man(b1-4)GlcNAc(b1-4)[Fuc(a1-6)]GlcNAc", "outline": "as §1"}, "[26]": {"molecular_target": "Fuc(a1-2)[Gal(a1-3)]Gal(b1-3)GlcNAc(b1-3)GalNAc", "outline": "as §1"}, "[27]": {"molecular_target": "Fuc(a1-2)[Gal(a1-3)]Gal(b1-3)GlcNAc(b1-6)GalNAc", "outline": "as §1"}, "[28]": {"molecular_target": "Fuc(a1-2)[Gal(a1-3)]Gal(b1-4)Glc", "outline": "as §1"}, "[29]": {"molecular_target": "Fuc(a1-2)[Gal(a1-3)]Gal(b1-4)GlcNAc", "outline": "as §1"}, "[30]": {"molecular_target": "Fuc(a1-2)[Gal(a1-3)]Gal(b1-4)GlcNAc(b1-2)Man", "outline": "as §1"}, "[31]": {"molecular_target": "Fuc(a1-2)[Gal(a1-3)]Gal(b1-4)GlcNAc(b1-2)Man(a1-3)[Fuc(a1-2)[Gal(a1-3)]Gal(b1-4)GlcNAc(b1-2)Man(a1-6)]Man(b1-4)GlcNAc(b1-4)GlcNAc", "outline": "as §1"}, "[32]": {"molecular_target": "Fuc(a1-2)[Gal(a1-3)]Gal(b1-4)GlcNAc(b1-2)Man(a1-3)[Fuc(a1-2)[Gal(a1-3)]Gal(b1-4)GlcNAc(b1-2)Man(a1-6)]Man(b1-4)GlcNAc(b1-4)[Fuc(a1-6)]GlcNAc", "outline": "as §1"}, "[33]": {"molecular_target": "Fuc(a1-2)[Gal(a1-3)]Gal(b1-4)GlcNAc(b1-3)GalNAc", "outline": "as §1"}, "[34]": {"molecular_target": "Fuc(a1-2)[Gal(a1-3)]Gal(b1-4)GlcNAc(b1-3)[Fuc(a1-2)[Gal(a1-3)]Gal(b1-4)GlcNAc(b1-6)]GalNAc", "outline": "as §1"}, "[35]": {"molecular_target": "Fuc(a1-2)[Gal(a1-3)]Gal(b1-4)GlcNAc(b1-6)GalNAc", "outline": "as §1"}, "[36]": {"molecular_target": "Fuc(a1-2)[Gal(a1-3)]Gal(b1-4)[Fuc(a1-3)]Glc", "outline": "as §1"}, "[37]": {"molecular_target": "Fuc(a1-2)[Gal(a1-3)]Gal(b1-4)[Fuc(a1-3)]GlcNAc", "outline": "as §1"}}, "note": "The other results are listed elsewhere or left out.", "data": [{"binder": "SP15308B-bot-339-22-339 (Bacteroides ovatus) (protein) NEWEDEQYEQYVSFKAPIASGSDGVTTIYVRYKDNGKVTYQLPIIVSGSTVNSQDRDIHIAVDKDTLKTLNIERFSLYRPELWYTEMEEDKYEFPETVHIPAGSCVELLNIDFNLQDIDMLEKWVLPLTIVDDGSYAYQSHPRKNYAKALLKVVPFNNYSGSYTASSMKVYTYINGKPDTNARTTDKRTGYVVDNNSIFFYAGLINEDMDKDMRKKYKINVHFKEDGTLDMKQDDPSNEMEFELIGTPTYSSTSVMDATRPYLERRYVQIMFEYDFQDFTYGGSGTEVIPIKYRVAGSMTLLRNINTQIPDEDQQIEW", "values": [{"measurement": "glycan array binding signal (z-score)", "setting": "[1]", "result": 0.402}, {"measurement": "glycan array binding signal (z-score)", "setting": "[2]", "result": -0.277}, {"measurement": "glycan array binding signal (z-score)", "setting": "[3]", "result": 0.517}, {"measurement": "glycan array binding signal (z-score)", "setting": "[4]", "result": -0.247}, {"measurement": "glycan array binding signal (z-score)", "setting": "[5]", "result": -0.185}, {"measurement": "glycan array binding signal (z-score)", "setting": "[6]", "result": 0.515}, {"measurement": "glycan array binding signal (z-score)", "setting": "[7]", "result": -0.184}, {"measurement": "glycan array binding signal (z-score)", "setting": "[8]", "result": 0.461}, {"measurement": "glycan array binding signal (z-score)", "setting": "[9]", "result": 0.719}, {"measurement": "glycan array binding signal (z-score)", "setting": "[10]", "result": 0.54}, {"measurement": "glycan array binding signal (z-score)", "setting": "[11]", "result": -0.601}, {"measurement": "glycan array binding signal (z-score)", "setting": "[12]", "result": 0.168}, {"measurement": "glycan array binding signal (z-score)", "setting": "[13]", "result": 0.83}, {"measurement": "glycan array binding signal (z-score)", "setting": "[14]", "result": -0.147}, {"measurement": "glycan array binding signal (z-score)", "setting": "[15]", "result": -0.404}, {"measurement": "glycan array binding signal (z-score)", "setting": "[16]", "result": -0.658}, {"measurement": "glycan array binding signal (z-score)", "setting": "[17]", "result": 0.853}, {"measurement": "glycan array binding signal (z-score)", "setting": "[18]", "result": 0.252}, {"measurement": "glycan array binding signal (z-score)", "setting": "[19]", "result": -0.011}, {"measurement": "glycan array binding signal (z-score)", "setting": "[20]", "result": -0.108}, {"measurement": "glycan array binding signal (z-score)", "setting": "[21]", "result": -0.374}, {"measurement": "glycan array binding signal (z-score)", "setting": "[22]", "result": -0.087}, {"measurement": "glycan array binding signal (z-score)", "setting": "[23]", "result": -0.205}, {"measurement": "glycan array binding signal (z-score)", "setting": "[24]", "result": 0.038}, {"measurement": "glycan array binding signal (z-score)", "setting": "[25]", "result": -0.387}, {"measurement": "glycan array binding signal (z-score)", "setting": "[26]", "result": -0.829}, {"measurement": "glycan array binding signal (z-score)", "setting": "[27]", "result": -0.081}, {"measurement": "glycan array binding signal (z-score)", "setting": "[28]", "result": -0.6}, {"measurement": "glycan array binding signal (z-score)", "setting": "[29]", "result": -0.255}, {"measurement": "glycan array binding signal (z-score)", "setting": "[30]", "result": 0.303}, {"measurement": "glycan array binding signal (z-score)", "setting": "[31]", "result": 0.699}, {"measurement": "glycan array binding signal (z-score)", "setting": "[32]", "result": 0.241}, {"measurement": "glycan array binding signal (z-score)", "setting": "[33]", "result": -0.515}, {"measurement": "glycan array binding signal (z-score)", "setting": "[34]", "result": 0.442}, {"measurement": "glycan array binding signal (z-score)", "setting": "[35]", "result": -0.332}, {"measurement": "glycan array binding signal (z-score)", "setting": "[36]", "result": -0.153}, {"measurement": "glycan array binding signal (z-score)", "setting": "[37]", "result": -0.171}]}]}
